No constants are given. Whether binding was seen depends on the method and setting. Some entries that bind do so weakly or less than the wild type.
How the values were obtained:
[1] = molecular target: T1, mouse CAPRIN-1 on the cell membrane surface of mouse cancer cells (mouse) (UniProt Q60865); assay: flow cytometry, 4T1
T1 sequence (looked up): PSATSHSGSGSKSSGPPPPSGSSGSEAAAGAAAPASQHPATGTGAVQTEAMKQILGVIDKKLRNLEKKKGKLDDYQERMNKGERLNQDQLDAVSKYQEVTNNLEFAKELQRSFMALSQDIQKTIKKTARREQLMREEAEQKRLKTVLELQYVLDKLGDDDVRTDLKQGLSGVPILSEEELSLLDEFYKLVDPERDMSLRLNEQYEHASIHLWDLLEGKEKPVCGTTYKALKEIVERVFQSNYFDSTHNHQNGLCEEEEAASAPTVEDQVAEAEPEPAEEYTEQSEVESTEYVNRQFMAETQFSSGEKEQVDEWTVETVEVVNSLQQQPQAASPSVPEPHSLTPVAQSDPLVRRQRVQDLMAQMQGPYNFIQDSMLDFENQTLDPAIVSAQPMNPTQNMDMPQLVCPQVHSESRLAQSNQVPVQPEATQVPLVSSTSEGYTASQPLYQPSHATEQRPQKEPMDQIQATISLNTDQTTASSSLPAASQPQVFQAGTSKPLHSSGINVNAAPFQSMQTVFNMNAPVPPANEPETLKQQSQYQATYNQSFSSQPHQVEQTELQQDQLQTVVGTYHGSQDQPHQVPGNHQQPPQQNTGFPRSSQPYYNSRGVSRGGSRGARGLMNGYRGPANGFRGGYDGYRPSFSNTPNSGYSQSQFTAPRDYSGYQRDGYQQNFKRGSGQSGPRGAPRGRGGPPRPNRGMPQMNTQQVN

Protein sequences, listed by entry. Tags and fused reporters are not part of them. Lines headed by an entry give the natural chain unless they say otherwise; changes in a name come on top.
UniProt P01630: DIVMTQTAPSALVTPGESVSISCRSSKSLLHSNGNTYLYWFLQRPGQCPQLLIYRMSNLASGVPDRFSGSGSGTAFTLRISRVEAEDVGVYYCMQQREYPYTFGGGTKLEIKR

[2] = molecular target: T2, human CAPRIN-1 on the cell membrane surface of human cancer cells (human) (UniProt Q14444); assay: flow cytometry, HT29
T2 sequence (looked up): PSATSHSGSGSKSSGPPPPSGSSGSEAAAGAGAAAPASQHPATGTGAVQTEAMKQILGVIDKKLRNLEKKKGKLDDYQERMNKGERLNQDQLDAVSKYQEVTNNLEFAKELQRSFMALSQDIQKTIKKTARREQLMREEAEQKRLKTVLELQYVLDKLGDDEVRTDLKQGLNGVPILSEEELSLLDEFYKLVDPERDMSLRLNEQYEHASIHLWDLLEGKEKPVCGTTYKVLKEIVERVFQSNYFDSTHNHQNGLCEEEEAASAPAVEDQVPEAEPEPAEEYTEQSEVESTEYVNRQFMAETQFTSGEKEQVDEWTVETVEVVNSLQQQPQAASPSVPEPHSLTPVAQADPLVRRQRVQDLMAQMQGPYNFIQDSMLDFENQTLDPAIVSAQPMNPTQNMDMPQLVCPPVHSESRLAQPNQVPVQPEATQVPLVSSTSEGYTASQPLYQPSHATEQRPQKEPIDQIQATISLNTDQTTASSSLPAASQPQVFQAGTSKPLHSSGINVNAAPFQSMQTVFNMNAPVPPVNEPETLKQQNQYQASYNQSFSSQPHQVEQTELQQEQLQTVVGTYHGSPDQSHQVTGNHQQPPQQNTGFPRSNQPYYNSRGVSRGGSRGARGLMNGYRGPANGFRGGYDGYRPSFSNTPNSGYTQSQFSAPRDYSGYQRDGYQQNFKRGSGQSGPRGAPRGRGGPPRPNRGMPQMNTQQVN

[3] = molecular target: T2, human CAPRIN-1 on the cell membrane surface of human cancer cells (human); assay: flow cytometry, human cancer cells
[4] = molecular target: T1, mouse CAPRIN-1 on the cell membrane surface of mouse cancer cells (mouse); assay: flow cytometry, mouse cancer cells

Measured: binding

F(ab')2 complex #14 (from UniProt P01630 1-108)
binds: all assays above

F(ab')2 complex #30 (from UniProt P01665 12-111)
binds: all assays above

F(ab')2 complex #47 (from UniProt P01630 1-108)
binds: all assays above

F(ab')2 complex #63 (from UniProt P01665 12-111)
binds: all assays above

— patent publication EP4778539A1
